Results deposited as PubChem BioAssay AID1259289 (Sanger Institute, 2017).

- Purpose: 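Kinase-wide silencing tested with three anchor drugs to reveal synergistic lethal pairs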 (primary screen)
- System: human LS513 colorectal cancer cells
- Reagent: siRNA pool against human genes
- Treatment: anchor drug BYL719 at 1 µM, cetuximab at 5 µg/ml or trametinib at 10 nM, or DMSO vehicle alone; exposure time not given
- Read-out: 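Cell survival as a fraction of the non-targeting pool, replicate means; robust z-score for silencing alone under DMSO; synergy score for each of BYL719, cetuximab and trametinib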
- Direction: robust z-score, siRNA alone (DMSO): higher = more viable cells; strongly negative means essential
- Call rule: 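a gene counts as active if its DMSO-only robust z-score falls under -3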
- Calls: active = essential (knock-down alone); inactive = not essential
The whole screen tested 794 reagents; below is a random part of them. In the full data, 16 (2%) were called active. 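Active marks cell loss from silencing alone; drug synergy shows only in the synergy scores, not the calls.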 Entries without a mark were called inactive. Further read-outs or replicates are left out here. The record does not give: the amount of reagent, the time to read-out.

The first 2 entries as a preview:
| gene | robust z-score, siRNA alone (DMSO) |
| --- | --- |
| PTK2B (GeneID 2185) | 0.561 |
| CEP290 (GeneID 80184) | 0.561 |

Main list, from the start:
| gene | robust z-score, siRNA alone (DMSO) |
| --- | --- |
| PTK2B (GeneID 2185) | 0.561 |
| CEP290 (GeneID 80184) | 0.561 |
| WNK3 (GeneID 65267) | 0.561 |
| CAD (GeneID 790) | 0.561 |
| PRKACA (GeneID 5566) | 0.561 |
| DGKH (GeneID 160851) | 0.223 |
| MAPK4 (GeneID 5596) | 0.139 |
| TAB1 (GeneID 10454) | 0.561 |
| MAPKAPK3 (GeneID 7867) | 0.561 |
| BCKDK (GeneID 10295) | 0.561 |
| BRSK2 (GeneID 9024) | 0.561 |
| ULK1 (GeneID 8408) | 0.00495 |
| TRPM7 (GeneID 54822) | 0.169 |
| SIK3 (GeneID 23387) | 0.561 |
| SOS2 (GeneID 6655) | 0.561 |
| SCYL3 (GeneID 57147) | 0.561 |
| MARK4 (GeneID 57787) | 0.393 |
| FGFR3 (GeneID 2261) | 0.561 |
| KRAS (GeneID 3845) | -5.69 (active) |
| BCR (GeneID 613) | 0.114 |
